Values from PubChem BioAssay AID1671195 (Yale University, 2021)
The deposit covers about 22,000 reagents; below is a random part of them. About 1,510 of them (6.9%) were called active. 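Active includes knockdowns raising or lowering LDL uptake; positive z-scores mean more uptake, negative mean less.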 Entries without a mark were called inactive. Reagents against one gene are numbered here.

Aim: 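Genes whose knockdown alters LDL uptake in liver cancer cells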 (primary screen)
Cells: human Huh7 hepatoma cells
Reagents: siRNA pool against human genes, 18 nM
Timing: about 2 to 2.5 days of knockdown, then 8 h LDL uptake
Challenge: DiI-labelled LDL at 30 µg/ml for 8 h, in lipoprotein-deficient serum medium
Measurement: 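Fluorescent LDL signal imaged in cells, scaled to the plate median, robust z-score for each replicate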
Direction: robust z-score: higher = more LDL uptake after knockdown
Hit rule: 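Active when two or more replicates show a robust z-score above 2 or below -2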

Gene | reagent | robust z-score, replicate 1 | robust z-score, replicate 2 | robust z-score, replicate 3
LOC401740 (retired record) (GeneID 401740) | 1 | -0.496 | -0.821 | -0.581
DNAL1 (GeneID 83544) | 1 | -0.47 | -0.713 | -1.29
DPT (GeneID 1805) | 1 | -0.729 | -0.762 | -0.491
HMGA2 (GeneID 8091) | 1 | -1.9 | -1.22 | -1.9
ARHGAP28 (GeneID 79822) | 1 | -0.994 | -1.06 | -0.587
SLC7A6OS (GeneID 84138) | 1 | 0.398 | 0.526 | 0.275
BRF2 (GeneID 55290) | 1 | 1.54 | 1.64 | 1.48
ELOVL6 (GeneID 79071) | 1 | 0.419 | -0.574 | -0.102
EFHC2 (GeneID 80258) | 1 | 0.422 | 0.00336 | -0.267
CHRNA3 (GeneID 1136) | 1 | -0.977 | -0.879 | -0.662
C1QTNF6 (GeneID 114904) | 1 | 0.717 | -0.4 | 0.061
ADH4 (GeneID 127) | 1 | -0.194 | -0.351 | -0.783
MYO1A (GeneID 4640) | 1 | 0.546 | 2.68 | 0.657
SMPX (GeneID 23676) | 1 | -1.93 | -1.15 | 0.00946
MRPS2 (GeneID 51116) | 1 | 1.14 | 0.443 | 1.19
LOC442669 (retired record) (GeneID 442669) | 1 | 0.957 | 0.988 | 0.824
ARIH1 (GeneID 25820) | 1 | -0.923 | -1.75 | -2.33
LOC441859 (retired record) (GeneID 441859) | 1 | 0.869 | 1.09 | 0.403
CLIC6 (GeneID 54102) | 1 | -0.0192 | 0.345 | 0.367
TOP2B (GeneID 7155) | 1 | 0.0445 | 1.31 | 1.06
MAP6D1 (GeneID 79929) | 1 | 0.401 | -0.622 | -0.497
CRP (GeneID 1401) | 1 | -0.72 | -0.804 | -0.705
TRMT9B (GeneID 57604) | 1 | -0.136 | 0.839 | 1.66
TRMT9B (GeneID 57604) | 2 | 1.01 | 0.575 | 0.768
RGR (GeneID 5995) | 1 | -1.64 | 1.36 | 1.75
MAPK11 (GeneID 5600) | 1 | -0.0914 | 0.309 | 0.208
LOC440755 (retired record) (GeneID 440755) | 1 | -4.33 | 0.908 | 0.955
SPATA1 (GeneID 100505741) | 1 | 3.12 (active) | 3.09 | 3.25
TEX264 (GeneID 51368) | 1 | 0.527 | 0.242 | 0.618
C10orf67 (GeneID 256815) | 1 | 0.203 | 0.146 | 0.374
C10orf67 (GeneID 256815) | 2 | -0.121 | -0.282 | -0.0369
CDC40 (GeneID 51362) | 1 | 1.31 | -0.438 | -1.12
MIR7-3HG (GeneID 284424) | 1 | -1.75 | -1.71 | -1.55
SDSL (GeneID 113675) | 1 | 1.06 | 1.56 | 1.32
FOXK2 (GeneID 3607) | 1 | -1.13 | -1.31 | -0.359
PHLDB1 (GeneID 23187) | 1 | 0.362 | -0.639 | -0.15
SLC35F1 (GeneID 222553) | 1 | -0.947 | -0.219 | -0.464
C1QBP (GeneID 708) | 1 | 1.21 | 1.58 | 1.67

Looked up above.
ARHGAP28 (GeneID 79822), robust z-score, replicate 2 = -1.06
MIR7-3HG (GeneID 284424), robust z-score, replicate 2 = -1.71
Value of DPT (GeneID 1805) in “robust z-score, replicate 3”: -0.491
RGR (GeneID 5995), robust z-score, replicate 2 = 1.36

The listing continues:
Gene | reagent | robust z-score, replicate 1 | robust z-score, replicate 2 | robust z-score, replicate 3
INSL6 (GeneID 11172) | 1 | -0.106 | -0.321 | -0.282
PIH1D1 (GeneID 55011) | 1 | -2.04 | -0.0878 | -1.72
SAT1 (GeneID 6303) | 1 | -0.0358 | 0.701 | 0.403
MAGED2 (GeneID 10916) | 1 | 0.127 | -1.08 | -0.429
ARHGEF11 (GeneID 9826) | 1 | 0.739 | 0.227 | 0.158
MICAL3 (GeneID 57553) | 1 | 1.11 | 0.0516 | 0.542
ZNF786 (GeneID 136051) | 1 | -1.21 | -1.43 | -0.964
RPL22L1 (GeneID 200916) | 1 | 0.874 | 0.502 | 0.244
LOC401477 (retired record) (GeneID 401477) | 1 | 0.815 | 0.233 | 1.6
H1-10-AS1 (GeneID 339942) | 1 | 1.47 | 1.15 | 1.26
THEM5 (GeneID 284486) | 1 | -0.629 | -0.346 | -0.456
GSAP (GeneID 54103) | 1 | 1.31 | 0.973 | 1.09
CNGB1 (GeneID 1258) | 1 | -0.718 | -0.598 | -0.428
ASMTL-AS1 (GeneID 80161) | 1 | -1.4 | -1.45 | -1.27
YJU2 (GeneID 55702) | 1 | -1.06 | 0.0298 | -1.04
POU3F1 (GeneID 5453) | 1 | 0.344 | 0.739 | 1.09
CEP250 (GeneID 11190) | 1 | -0.232 | -1 | 0.52
CDIN1 (GeneID 84529) | 1 | -0.0251 | -0.506 | -0.396
LYSMD3 (GeneID 116068) | 1 | -1.51 | -0.788 | -1.49
ABHD10 (GeneID 55347) | 1 | 1.93 | -1.28 | 0.606
RAET1L (GeneID 154064) | 1 | -0.86 | -1.75 | -0.984
SAXO5 (GeneID 374877) | 1 | -0.329 | -0.162 | 0.0665
APCDD1 (GeneID 147495) | 1 | -2.02 | -1.16 | -1.9
GRIP2 (GeneID 80852) | 1 | -0.507 | -0.128 | 0.0639
DAGLB (GeneID 221955) | 1 | -0.232 | -0.217 | 0.234
LOC388169 (retired record) (GeneID 388169) | 1 | -0.125 | -0.193 | 0.193
CIP2A (GeneID 57650) | 1 | 1.17 | 0.131 | -0.761
OR7E31P (GeneID 375601) | 1 | -0.302 | -0.132 | 0.0473
OR6S1 (GeneID 341799) | 1 | -0.478 | -0.531 | -0.504
CLIC4P3 (GeneID 442447) | 1 | 0.425 | -0.0589 | 0.511
